Data published in paper PMC6162288, “On-chip spatiotemporal electrophysiological analysis of human stem cell derived cardiomyocytes enables quantitative assessment of proarrhythmia in drug development” (Scientific Reports, 2018).

Experiments:
[1] = effective therapeutic plasma concentration; cited from earlier work
lined-up hESC-CMs = assay: MEA field potential recording of lined-up hESC-CMs (cFPD, CT, their STVs, ISI, beat rate, arrest); conditions: Conc. 10^3 nM; arrest cases/chips
Procedure: Human embryonic stem cell-derived cardiomyocytes clusters (hES-CMCs) were shipped from Cellectis (hES-CMCTM002, hES cell line SA002, Gothenburg, Sweden)[42],[43], and maintained in Dulbecco’s modified Eagle’s medium (DMEM) supplemented 20% heat-inactivated fetal bovaine serum, 1 mM GlutaMax, 100 U/mL penicillin, 0.1 mg/mL streptomycin, 1% nonessential amino acids and 0.1 mM β-mercaptoethanol (Invitrogen, Carsbad, CA, USA). Dispersed cardiomyocytes were isolated from hES-CMCs by a modification of the methods of Norström et al.[44]–[48]. […] The supernatant was gently aspirated with pipette, and a 5-hold volume of DMEM was added as stop solution. Remaining clusters were treats ed with the above process with several times. The supernatants were collected and centrifuged with 200 × g for 2–3 min at 4 °C. […]
Extracellular potential recordings of the lined-up hESC-CMs were performed using the MEA system at a sampling rate of 10 kHz with a low path filter of 2 kHz and high path filter of 1 Hz, and signals were amplified by 100–50,000 using the amplifier. […] The signals were analyzed by Igor Pro 6.0 (WaveMetrics, Inc., USA) and FlexPro 7.0 (Weisang GmbH, Germany).
We adopted the same drug administration protocol as we examined previously[40] […] The MEA chip was placed in the holder of the FP measurement device, and equilibrated for 5 min, and then the control FP waveforms were recorded for 10 min. […]

For `Cc1cccc(CCN2CCC(C(=O)c3ccc(NS(C)(=O)=O)cc3)CC2)n1` [E-4031], the EPTC [1] is given as 3.5 nM and the Arrest (lined-up hESC-CMs) is given as 1/13.
